Assay results published in the supplement of paper PMC10338343.
± gives the standard deviation. The entries are a selection whose mix differs from that of the whole data set. Many of these values have a large error.

The sequences below were run on MILI (PIWIL2) piRISC loaded with piRNA #1 (26 nt) (assay: pre-steady-state target cleavage rate (min^-1); higher = faster piRNA-guided slicing of the target). Details: guide: piRNA #1 5'p-UGAGGUAGUAGGUUGUAUAGUAUCCA; auxiliary factor: 500 nM mouse GTSF1.
Procedure, shortened: (§1)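 In this Cleave-'n-Seq assay, uncleaved targets were sequenced and normalised to depth and to weakly complementary targets. They came from a transcribed, DNA-blocked target RNA library […] mixed with 1 nM active affinity-purified piRISC carrying one synthetic guide, with or without 500 nM GTSF1 partner protein, in HEPES–potassium acetate buffer at 33 °C for 0–8 or 0–960 min. After three trials were pooled and k3 was capped at 0.0001 min^-1, the pre-steady-state cleavage rate was obtained from a burst-and-steady-state fit.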

Sequence	pre-steady-state target cleavage rate
GGAGACCUAUCUAUACAACCUAUACCUCA	0.00215 ± 0.0035
GGAGACCAUACUAUAGAACCUACUAGCUCA	0.00202 ± 0.0051
GGAGACCUAUGUAUACAACGUACUACCACA	0.00942 ± 0.003
GGAGACCUAUGAUAUGAUGCUACUACCUCA	0.00043 ± 0.0085
GGAGACCUAACUAUACUACCAACUACCUCA	0.00367 ± 0.0055
GGAGACCUAUGAUAUGUACGUACUACGUCA	0.000945 ± 0.0076
GGAGACCUAUCUAAACAACCUAGUACCUCA	0.0109 ± 0.0036
GGAGACCUAUGAUAACAACAUACUACCUCA	0.00202 ± 0.0033
GGAGACCUAUGAUAUGUUGCAACUACGUCA	0.000619 ± 0.009
GGAGACCUAUGAUUACAACCUACCUACCUCA	0.00646 ± 0.0028
GGAGACCGUACUAUACAACCUACUACCUCA	0.157 ± 0.021
GGAGACGAUACUAUAGAACCUACUACCACA	0.0976 ± 0.015
GGAGACCUAUCUAUACAACGAUCUACCUCA	0.000958 ± 0.0071
GGAGACCUAUGAUUACAACCAUACUACCUCA	0.000766 ± 0.0047
GGAGACCUAUGAUUACAACCUACUACCUGA	0.00263 ± 0.0027
GGAGACCUAUCUAUACAACCAACUACGUCA	0.00385 ± 0.0021
GGAGACCUAUGAUUACAGACCUACUACCUCA	0.000218 ± 0.016

The sequences below were run on MIWI (PIWIL1) piRISC loaded with piRNA #1 (30 nt) in the same assay as above. Details: guide: piRNA #1 5'p-UGAGGUAGUAGGUUGUAUAGUAUCCAGAGG; auxiliary factor: 500 nM mouse GTSF1.
Procedure, shortened: as §1

Sequence	pre-steady-state target cleavage rate
GGAGACCUAUGAUAUGUUGGUACUCCCUCA	0.000727 ± 0.0086
GGAGACCUAUGUAUACAUGGUACUACCUCA	0.00121 ± 0.0044
GGAGACCUAUGAUAACUACCUACUACGUCA	0.000799 ± 0.0067
GGAGACCUAUGAUUACAACCUACUACAUCA	0.00359 ± 0.0039
GGAGACCUAUGAUUUCAACGUACUACCUCA	0.00032 ± 0.0076
GGAGACCUAUGAAUACAACCUACAAGCUCA	0.000135 ± 0.018
GGAGACCUAACUAUACAUCCAACUACCUCA	0.00429 ± 0.0053
GGAGACCUAUGAUAACAACGUACUACGUCA	0.000631 ± 0.0075
GGAGAGGAUACUAUACAACGAUGAUGGAGA [g12:g25:cont:t1A]	0.000191 ± 0.019
GGAGACCUAUGAUUACAACCUAGCUACCUCA	0.00153 ± 0.004
GGAGACCUAUGAUAUCAACCAACUACCUCA	0.000134 ± 0.019
GGAGACCUAUGAUAUGUUCCGACUACCUCA	0.000378 ± 0.0092
GGAGACCUAUGAAUACAACCUACUGCCUCA	0.000238 ± 0.0081
GGAGACGAUACUAUACAUGCUACUACCUCA	0.755 ± 0.037
GGAGACCUAUCUAUACAACCUAUACCUCA	0.000558 ± 0.0078
GGAGACCAUACUAUAGAACCUACUAGCUCA	0.00246 ± 0.0038
GGAGACCUAUGUAUACAACGUACUACCACA	0.00149 ± 0.0042
GGAGACCUAUGAUAUGAUGCUACUACCUCA	0.001 ± 0.0058
GGAGACCUAACUAUACUACCAACUACCUCA	0.000834 ± 0.015
GGAGACCUAUGAUAUGUACGUACUACGUCA	0.00139 ± 0.0051
GGAGACCUAUGAUAACAACAUACUACCUCA	0.00111 ± 0.0049
GGAGACCUAUGAUAUGUUGCAACUACGUCA	0.000861 ± 0.0056
GGAGACCUAUGAUUACAACCUACCUACCUCA	0.00168 ± 0.0029
GGAGACCUAUCUAUACAACGAUCUACCUCA	0.000157 ± 0.016
GGAGACCUAUGAUUACAACCAUACUACCUCA	0.000249 ± 0.0069
GGAGACCUAUGAUUACAACCUACUACCUGA	0.000904 ± 0.0046
GGAGACCUAUGAUUACAGACCUACUACCUCA	0.000527 ± 0.0076

Each sequence was assayed on EfPiwi piRISC loaded with piRNA #1 (26 nt) (assay: pre-steady-state target cleavage rate (min^-1); guide: piRNA #1 5'p-UGAGGUAGUAGGUUGUAUAGUAUCCA; MIWI and MILI are mouse PIWI proteins and EfPiwi is from a freshwater sponge; tags in brackets are library labels; higher = faster piRNA-guided slicing of the target). Details: auxiliary factor: 500 nM Ephydatia muelleri Gtsf1.
Procedure, shortened: as §1

Sequence	pre-steady-state target cleavage rate
GGAGACCUAUCUAUACAUCCAACUACCUCA	0.00281 ± 0.0041
GGAGACCUAUGAUAUGUUGGUACUCCCUCA	0.000344 ± 0.0069
GGAGACCUAUGUAUACAUGGUACUACCUCA	0.000488 ± 0.0038
GGAGACCUAACUAUACAACGCUACUACCUCA	0.00208 ± 0.0055
GGAGACCUAUGAUAACUACCUACUACGUCA	0.000378 ± 0.0076
GGAGACCUAUGAUAACAAGCUACUAGCUCA	0.00131 ± 0.0069
GGAGACCUAUGAUUACAACCUACUACAUCA	0.00156 ± 0.0056
GGAGAGGAUACUAUACAACCUUACUACCUCA	0.00845 ± 0.0045
GGAGACCUAUGAUUUCAACGUACUACCUCA	0.00142 ± 0.0052
GGAGACCUAUGAAUACAACCUACAAGCUCA	0.000121 ± 0.022
GGAGACCUAACUAUACAUCCAACUACCUCA	0.00275 ± 0.0054
GGAGAGGAUACUAUACUUGCUACUACCUCA	0.00164 ± 0.0048
GGAGACCUAUGAUAACAACGUACUACGUCA	0.000852 ± 0.004
GGAGAGGAUACUAUACAACGAUGAUGGAGA [g12:g25:cont:t1A]	0.00183 ± 0.0056
GGAGACCUAUGAUUACAACCUAGCUACCUCA	0.00117 ± 0.0072
GGAGUGGAUACUAUACAACGAUGAUGGAGA [g12:g26:cont:t1A]	0.00221 ± 0.0033
GGAGACCUUACUAUACAUCCUACUAGCUCA	0.00233 ± 0.0027
GGAGACCUAUGAUAUCAACCAACUACCUCA	0.000261 ± 0.01
GGAGACCUAUGAUAUGUUCCGACUACCUCA	0.00138 ± 0.0065
GGAGACCUAUGAUAUCAACCUACUGCCUCA	0.000644 ± 0.0094

Sequence	pre-steady-state target cleavage rate
GGAGACCUAUGAAUACAACCUACUGCCUCA	0.00368 ± 0.0037
GGAGACCUAACUAUACAACCUUGUACCUCA	0.0014 ± 0.0058
GGAGACGAUACUAUACAUGCUACUACCUCA	0.00483 ± 0.0015
GGAGACCUAUCUAUACAACCUAUACCUCA	0.000529 ± 0.0094
GGAGACCAUACUAUAGAACCUACUAGCUCA	0.00106 ± 0.0027
GGAGACCUAUGUAUACAACGUACUACCACA	0.00135 ± 0.0095
GGAGACCUAUGAUAUGAUGCUACUACCUCA	0.00159 ± 0.0047
GGAGACCUAACUAUACUACCAACUACCUCA	0.000933 ± 0.0076
GGAGACCUAUGAUAUGUACGUACUACGUCA	0.000942 ± 0.0054
GGAGACCUAUCUAAACAACCUAGUACCUCA	0.00117 ± 0.0037
GGAGACCUAUGAUAACAACAUACUACCUCA	0.000744 ± 0.0046
GGAGACCUAUGAUAUGUUGCAACUACGUCA	0.000569 ± 0.0062
GGAGACCUAUGAUUACAACCUACCUACCUCA	0.000959 ± 0.0086
GGAGACCGUACUAUACAACCUACUACCUCA	0.156 ± 0.049
GGAGACGAUACUAUAGAACCUACUACCACA	0.0013 ± 0.0026
GGAGACCUAUCUAUACAACGAUCUACCUCA	0.000833 ± 0.0084
GGAGACCUAUGAUUACAACCAUACUACCUCA	0.000736 ± 0.01
GGAGACCUAUGAUUACAACCUACUACCUGA	0.00143 ± 0.0036
GGAGACCUAUCUAUACAACCAACUACGUCA	0.00226 ± 0.0057
GGAGACCUAUGAUUACAGACCUACUACCUCA	0.00137 ± 0.0063
